Reference: patent publication US20140073556A1 (published 2014)
No constants are given. Whether binding was seen depends on the method and setting. Some results given as binding are weak or reduced against the parent protein; the word gives no strength.

Chains of the proteins cited; added tags and fusions are not shown. Residues count along the entry.
UniProt P14778, residues 18-336: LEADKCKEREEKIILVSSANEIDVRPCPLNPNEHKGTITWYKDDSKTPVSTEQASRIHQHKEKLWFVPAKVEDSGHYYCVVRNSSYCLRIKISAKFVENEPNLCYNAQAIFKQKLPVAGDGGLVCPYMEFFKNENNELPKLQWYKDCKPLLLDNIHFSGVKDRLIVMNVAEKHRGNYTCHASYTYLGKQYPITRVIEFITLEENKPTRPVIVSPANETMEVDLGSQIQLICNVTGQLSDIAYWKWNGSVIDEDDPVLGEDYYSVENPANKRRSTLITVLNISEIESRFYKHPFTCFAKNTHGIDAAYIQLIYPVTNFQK

What was measured:
[1] = molecular target: recombinant protein comprising the whole extracellular part of IL1RI (UniProt P14778); assay: SPR, IL1RI immobilised on sensor chip
[2] = molecular target: recombinant protein comprising the whole extracellular part of IL1RI (UniProt P14778); assay: SPR (BiaCore 2000), IL1RI ectodomain immobilised on CM5 chip

binding [1]: binds | binding [2]: binds
Binder: SGRKSSKMQA [Ilantafin peptide (SEQ ID NO:1), SGRKSSKMQA]
